# Laboratory results: PubChem BioAssay AID2417 (National Center for Advancing Translational Sciences (NCATS), 2010)
# Hit rate of the full screen: of about 140,000 compounds, about 4,300 (3.1%) were called active. This list was built around the results that the source calls inconclusive (neither active nor inactive); the mix of calls is not that of the screen.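 The calls were made as follows: active = readout at or below -70, meaning at least 70% loss of cells showing the perinucleolar compartment, a nuclear body marking cancer cells; inconclusive = readout between -30 and a set limit; inactive = the rest.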
# Assay: High Content Assay for Compounds that inhibit the Assembly of the Perinucleolar Compartment;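 also: plate controls were DMSO wells for no effect and camptothecin positive control wells for full effect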
# Conditions: PC3M PTB-GFP, PNC prevalence imaging, 16 h; at 10 µM; hits give low values
# Procedure, shortened: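 PC3M cells stably expressing PTB-GFP, 750–1000 cells/well, treated 16 h at 37 °C with compound (23 nl of library stock), in duplicate. After paraformaldehyde fixation and Hoechst stain, imaged at 20x; PNC prevalence scored by image analysis.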
row,Structure (SMILES),"activity change (PNC), negative = inhibition"
1,Cc1ccc(N=C2NC(=O)S/C2=C\c2ccco2)cc1,inactive: 0.943%
2,CCOC(=O)N1CCN(c2cc(=O)n(-c3ccccc3Cl)c(=O)[nH]2)CC1,inactive: 34.3%
3,Cc1cccc(N(C(=O)c2nsc(Cl)c2Cl)C(C(=O)NC2CCCC2)c2ccc(O)cc2)c1 (stereo not given),inactive: -9.6%
4,COc1ccc(S(=O)(=O)N2c3cc(C)ccc3OCC2C(C)(C)C)cc1 (stereo not given),inconclusive: -31.1%
5,Cc1cc(NCCCCO)n2c(nc3ccccc32)c1C#N,inconclusive: -30.5%
6,CCCCOc1ccccc1NC(=O)Cn1c(-c2nonc2N)nc2ccccc21,active: -94.7%
7,Cc1ccc(-c2c(=O)n(OCc3ccccn3)c3ccccc3[n+]2[O-])cc1,inconclusive: -38.5%
8,Clc1cccc(NCc2nnc(SCc3ccc(Cl)cc3Cl)o2)c1,active: -119%
9,Cc1ccc(-n2c(CNc3ccc(F)cc3)nnc2SCC(=O)N2CCOCC2)cc1,inconclusive: -31.8%
10,O=C(NCc1ccco1)c1cc(-c2ccc(F)cc2)on1,inconclusive: -39.5%
11,O=C(COc1ccc2ccccc2c1)NNC(=O)c1cccs1,inconclusive: -33.2%
12,Cc1cc2oc(=O)cc(CSc3nnc(C)n3N)c2cc1C(C)C,inconclusive: -37.3%
13,CCOCCCNS(=O)(=O)c1ccccc1,inconclusive: -32.7%
14,COC(=O)c1cn(CCOc2ccccc2F)c2ccccc12,inconclusive: -78.6%
15,Cc1cc(C(=O)CSc2nnc(-c3cccc(F)c3)n2N)c(C)n1Cc1ccc2c(c1)OCO2,inconclusive: -63.3%
16,COC(=O)N(NC(=O)C(O)(c1ccccc1)c1ccccc1)c1ccccc1,inconclusive: -55.6%
17,COc1ccc(-n2nc(C(=O)c3cccs3)cc(-c3nc4ccccc4[nH]3)c2=N)cc1,inactive: 10.5%
18,CCOc1ccccc1NC(=O)CCN1CCN(S(=O)(=O)c2ccc(Br)cc2)CC1,active: -107%
19,Cc1nc(CS(=O)c2ccc(Cl)cc2)cc(NCc2ccc(Cl)cc2Cl)n1 (stereo not given),inconclusive: -54.5%
20,Cc1cccc(C)c1NC(=O)C1(N(Cc2ccco2)C(=O)CC2NC(=O)NC2=O)CCCC1 (stereo not given),inconclusive: -36.8%
21,Cc1nnc(SC(C)C(=O)Nc2ccc3c(c2)OCCO3)s1 (stereo not given),inactive: 32.6%
22,Nc1cccnc1Sc1ccc([N+](=O)[O-])cn1,inactive: 22.6%
23,CN(C(=O)CCCN1C(=O)c2cccc3cccc(c23)C1=O)c1ccccc1,inconclusive: -50.5%

row,Structure (SMILES),"activity change (PNC), negative = inhibition"
1,CCOC(=O)c1[nH]c(C)c(C(=O)C(C)C)c1C,inconclusive: -39.5%
2,COCC(C)NC(=O)c1ccccc1OC(C)=O (stereo not given),inconclusive: -36%
3,Cc1ccc2cc(CN(Cc3cccs3)Cc3nnnn3CC3CCCO3)c(=O)[nH]c2c1 (stereo not given),inactive: 22.9%
4,N#Cc1c(NC(=O)C2CC(c3ccccc3O)=NO2)sc2c1CCC2 (stereo not given),inactive: 44.9%
5,CC(C)(C)C(=O)OCCNc1nc(-c2ccccc2)nc2ccccc12,inactive: 19.8%
6,c1ccc(C2CC(c3ccccc3)n3ncnc3N2)cc1 (stereo not given),inconclusive: -55.5%
7,Cn1c(-c2ccccc2)cnc1SCC(=O)N1CCCCC1,inconclusive: -52.6%
8,c1ccc(N2CCN(CCc3nnc4n3CCCCC4)CC2)cc1,inactive: -3.62%
9,Fc1cccc2sc(Nc3nc4ccccc4s3)nc12,inconclusive: -67.6%
10,CCOC(=O)N1CCN(C(=O)C2CCN(Cc3ccc(OC)cc3OC)CC2)CC1,inactive: 33.2%
11,Cc1ccc(-c2n[nH]c(=S)n2/N=C/c2c(C)nn(-c3ccccc3)c2C)cc1,inactive: -19%
12,COc1ccc(Nc2cc(C)nc3nc(C)nn23)c(OC)c1,inactive: 12.9%
13,CCCOC(=O)c1cccc(NC(=O)c2cccnc2)c1,inconclusive: -45.6%
14,O=C(Oc1c(-c2ccccc2Cl)oc2ccccc2c1=O)c1ccc(Cl)cc1,inconclusive: -58.5%
15,CC1Cc2ccccc2N1CC(=O)NCc1ccc2c(c1)OCO2 (stereo not given),inactive: 42%
16,Cc1oncc1C(=O)Nc1ccc(C(F)(F)F)cc1,inconclusive: -40.6%
17,COc1ccccc1NC(=S)NNC(=O)c1nn(C)c(C)c1Cl,inactive: 24.6%
18,COc1ccc(C(Cl)=C(c2ccc(OC)cc2)c2ccc(OC)cc2)cc1,inconclusive: -63.1%
19,CC1CCc2cc(F)ccc2N1C(=O)CSc1nnc2c(n1)[nH]c1ccc(F)cc12 (stereo not given),inconclusive: -51.5%
20,Cc1ccc(-c2nc3ccccc3[nH]2)cc1NC(=O)c1ccc2c(c1)OCO2,inconclusive: -44.5%
21,Cc1ccc2nc(N3CCC(C(=O)O)CC3)nc(-c3ccccc3)c2c1,inconclusive: -48%
22,Cn1ncc2c(NNC(=O)c3ccc(Cl)c(Cl)c3)ncnc21,inactive: 14.5%

# Reprinted at random: 3 records from the list
row,Structure (SMILES),"activity change (PNC), negative = inhibition"
13,CCCOC(=O)c1cccc(NC(=O)c2cccnc2)c1,inconclusive: -45.6%
7,Cc1ccc(-c2c(=O)n(OCc3ccccn3)c3ccccc3[n+]2[O-])cc1,inconclusive: -38.5%
19,CC1CCc2cc(F)ccc2N1C(=O)CSc1nnc2c(n1)[nH]c1ccc(F)cc12 (stereo not given),inconclusive: -51.5%
